Measured values taken from US5336483A (priority 1993, dated 1994).
For at least one compound, name, drawing or mass did not settle the structure.

By UniProt entry, the sequences of proteins in these tests, tags left out. Where a name states a change or a piece, a line headed by the entry shows the natural chain unless it says otherwise.
UniProt P33533, whole entry: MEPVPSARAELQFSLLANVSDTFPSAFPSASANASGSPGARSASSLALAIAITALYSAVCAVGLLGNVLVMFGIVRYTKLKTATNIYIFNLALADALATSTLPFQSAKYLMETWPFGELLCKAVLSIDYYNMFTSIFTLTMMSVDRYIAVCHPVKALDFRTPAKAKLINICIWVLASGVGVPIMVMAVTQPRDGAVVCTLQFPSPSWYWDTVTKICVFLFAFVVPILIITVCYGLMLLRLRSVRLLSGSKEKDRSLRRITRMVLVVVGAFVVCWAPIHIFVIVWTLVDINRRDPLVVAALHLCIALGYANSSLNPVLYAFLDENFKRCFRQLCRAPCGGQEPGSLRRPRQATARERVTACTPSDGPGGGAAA
UniProt P41144: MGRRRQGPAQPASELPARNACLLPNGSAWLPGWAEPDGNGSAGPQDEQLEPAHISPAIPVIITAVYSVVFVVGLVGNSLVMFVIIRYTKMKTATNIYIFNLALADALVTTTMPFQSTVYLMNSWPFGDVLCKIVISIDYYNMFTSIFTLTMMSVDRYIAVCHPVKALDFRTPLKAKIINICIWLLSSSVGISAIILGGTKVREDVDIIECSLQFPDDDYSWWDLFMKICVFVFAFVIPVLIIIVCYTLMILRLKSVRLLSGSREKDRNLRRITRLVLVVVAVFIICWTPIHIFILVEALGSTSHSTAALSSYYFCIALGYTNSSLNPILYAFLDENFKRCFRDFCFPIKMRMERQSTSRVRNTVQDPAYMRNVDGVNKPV
UniProt P33535, whole entry: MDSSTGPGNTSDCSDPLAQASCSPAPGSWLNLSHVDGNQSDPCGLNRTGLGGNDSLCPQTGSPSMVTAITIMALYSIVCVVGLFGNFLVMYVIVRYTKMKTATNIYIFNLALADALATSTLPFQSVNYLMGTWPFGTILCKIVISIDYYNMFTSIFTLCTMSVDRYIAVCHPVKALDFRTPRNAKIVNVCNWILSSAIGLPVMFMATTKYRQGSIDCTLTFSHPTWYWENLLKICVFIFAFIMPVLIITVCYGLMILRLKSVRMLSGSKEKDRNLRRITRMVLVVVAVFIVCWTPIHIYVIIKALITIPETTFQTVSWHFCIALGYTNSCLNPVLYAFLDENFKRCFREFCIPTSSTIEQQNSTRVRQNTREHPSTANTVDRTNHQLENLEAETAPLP

What was measured:
μ and κ2 receptor = test: Displacement of [^3 H]CycloFOXY, μ and κ2 receptor binding, rat brain lysed-P2 membranes
[1] = biological target: T1, High Affinity δ Receptors (Rattus norvegicus, UniProt P33533); test: Displacement of [^3 H]DADLE, high affinity δ receptors, rat lysed-P2 membranes; format: binding
T1 construct: and rat lysed-P2 membranes as previously described; from tissue; host or cells: rat lysed-P2 membranes (brain)

Low Affinity δ Receptors = test: Displacement of [^3 H]DADLE, low affinity δ receptors, rat lysed-P2 membranes; format: binding
κ2 receptor = test: Displacement of [^3 H]BRM (bremazocine), κ2 receptor binding, guinea pig brain membranes depleted of μ and δ sites
κ1 receptor = biological target: T2, κ1 receptor (Cavia porcellus, UniProt P41144); format: binding, guinea pig; conditions: [^3 H]U69,593 displacement
T2 construct: from tissue; host or cells: guinea pig brain membranes, pretreated with BIT and FIT

μ receptor = biological target: T3, μ receptor (Rattus norvegicus, UniProt P33535); test: Displacement of [^3 H]DAGO, μ receptor binding, rat lysed-P2 membranes; conditions: [^3 H]DAGO displacement
T3 construct: and rat lysed-P2 membranes as previously described; from tissue; host or cells: rat brain, lysed-P2 membranes

Compound: Oc1ccc2c3c1O[C@H]1[C@H](F)CC[C@@]4(O)[C@@H](C2)N(CC2CC2)CC[C@]314 [CycloFOXY, 6β-fluoro-3,14-dihydroxy-17-cyclopropyl methyl-4,5α-epoxymorphinan]
- IC50 (μ and κ2 receptor): 8.98 ± 0.35 nM
- Ki (μ and κ2 receptor): 3.42 nM
- reduction in affinity (fold) compared with ioxy (1) (μ and κ2 receptor; [^3 H]CycloFOXY displacement): 12 fold
- N (slope factor) [1]: 0.87 ± .09
- lowered affinity / less potent (fold) than ioxy (1) [1]: approximately 10 fold
- IC50 (Low Affinity δ Receptors): 16.2 ± 0.8 nM
- Ki (Low Affinity δ Receptors): 13.8 nM
- lower affinity (fold) than ioxy (1) (Low Affinity δ Receptors; [^3 H]DADLE, low affinity δ): 6 fold
- IC50 (κ2 receptor): 66 ± 3.9 nM
- Ki (κ2 receptor): 23.5 nM
- less potent (fold) than ioxy (κ2 receptor; [^3 H]BRM displacement): 7-9 fold
- kappa selectivity κ2/μ (κ2 receptor; ratio κ2/μ): 0.14
- N (slope factor) (κ1 receptor): 0.94 ± .09
- less potent (fold) than ioxy (κ1 receptor): 9 fold
- N (slope factor) (μ receptor): 1.13 ± .05
- lower affinity / less potent (fold) than ioxy (μ receptor): 4 fold
